# Data from PubChem BioAssay AID540276 (National Center for Advancing Translational Sciences (NCATS), 2011).
# Hit rate of the full screen: of about 300,000 compounds, about 5,400 (1.8%) were called active. This list was built around the results that the source calls inconclusive (neither active nor inactive); the mix of calls is not that of the screen. The call rests on the fitted dose curve; tested in HEK293 cells. A potency beside an inconclusive call is a rough fit, not a confirmed value.
# Assay: qHTS for inhibitors of binding or entry into cells for Marburg Virus
# Conditions: Marburg virus pseudotyped entry inhibition, cell reporter; activity change, negative = inhibition: at 37.8 µM (top of the series) unless noted
# On the % scale 0 is the no-effect control and ±100 the full control effect; potency means the concentration at half of the fitted maximal effect.
Structure (SMILES),Potency,"activity change, negative = inhibition"
O=C(NCC(c1ccco1)N1CCc2ccccc2C1)c1ccc(F)cc1 (stereo not given),"inconclusive: 0.891 µM [inhibitor, full curve, poor fit]",–
CN(C)C(=O)CNC(=O)CN1C(=O)NC2(CCCc3sccc32)C1=O (stereo not given),"inconclusive: 6.31 µM [activator, full curve, poor fit]",–
C=CCN1C(=O)/C(=C/c2ccc(OC(C)=O)c(OCC)c2[N+](=O)[O-])SC1=S,"inconclusive: 2.51 µM [inhibitor, full curve, poor fit]",–
CCC1C(=O)NCCN1Cc1nc(-c2ccc(C)s2)oc1C (stereo not given),"inconclusive: 25.1 µM [activator, single point]",–
O=C(O)CCCNC(=O)/C(=C\c1ccc(Cl)cc1)NC(=O)c1ccc(Br)cc1,–,inactive: 12.1% [at 46.1 µM]
COc1ccc(N2CC(C)Cn3c2nc2c3c(=O)n(Cc3ccc(C)cc3)c(=O)n2C)c(OC)c1 (stereo not given),"inconclusive: 35.5 µM [inhibitor, partial curve, poor fit]",–
O=C1CC(Sc2ccc(Cl)cc2)C(=O)N1c1ccc2c(c1)OCCO2 (stereo not given),"inconclusive: 6.31 µM [inhibitor, single point]",–
Cc1nc2ccccc2n1CCC(=O)Nc1cccc(F)c1,"inconclusive: 22.4 µM [inhibitor, single point]",–
O=C(N1CCOCC1)N1CCN(CC(O)COc2ccc3ccccc3c2)CC1 (stereo not given),"inconclusive: 1.41 µM [activator, partial curve, poor fit]",–
CCOc1ccc(-c2nnc(NC(=O)C3CCCC3)o2)cc1,–,inactive: 1.89% [at 46.1 µM]
COC(=O)NC(C)N1C(=O)C2C3C=CC(C3)C2C1=O (stereo not given),–,inactive: 1.66% [at 46.1 µM]
S=C(NCCNC(=S)Nc1ccccc1Cl)Nc1ccccc1Cl,"inconclusive: 35.5 µM [inhibitor, single point]",–
N#Cc1ccc2ccn(CC(=O)NCc3ccco3)c2c1,"inconclusive: 22.4 µM [inhibitor, single point]",–
O=C(NNC(=O)c1cccs1)c1ccc(Cl)nc1,–,inactive: 17.8%
CC(C)Nc1nc(NC(C)C)nc(Oc2ccc(OCc3ccccc3)nn2)n1,"inconclusive: 35.5 µM [inhibitor, single point]",–
COc1ccc(-c2csc(CCn3nc(C)cc3C)n2)cc1,"inconclusive: 15.8 µM [inhibitor, single point]",–
CCC(=O)Nc1cc(C(=O)OCc2ccc(C(=O)Oc3ccccc3)cc2)ccc1C,"inconclusive: 31.6 µM [activator, single point]",–
O=C(N/N=C1\CC(c2ccccc2)Oc2ccccc21)c1ccc(O)cc1 (stereo not given),–,inactive: -1.2% [at 46.1 µM]
CC(=O)Nc1ccc(NC(=O)CSc2ccc(-c3cccs3)nn2)cc1,"inconclusive: 4.47 µM [activator, full curve, poor fit]",–
CCOc1ccccc1N1CC(O)=C(c2nc3ccccc3s2)C1=N,active: 5.8 µM,–
CCOC(=O)C1=NNC2(c3ccc(C)cc3)C(=O)N(c3ccc(Cl)cc3)C(=O)C12 (stereo not given),"inconclusive: 35.5 µM [activator, single point]",–
CN(CC(=O)Nc1cccc(F)c1)C(=O)c1ccc(-c2cccc(C(F)(F)F)c2)o1,"inconclusive: 10 µM [inhibitor, partial curve, poor fit]",–
C=CCn1c(SCC(=O)C(C)(C)C)nnc1-c1cccs1,"inconclusive: 18.3 µM [activator, partial curve, poor fit]",–
O=C1CN(C(=O)Nc2ccccc2Cl)C(c2ccccc2)c2c(sc3c2CCCC3)N1 (stereo not given),–,inactive: -4.02% [at 46.1 µM]

# Quoted from the listing for reference:
Structure (SMILES),Potency,"activity change, negative = inhibition"
O=C(N/N=C1\CC(c2ccccc2)Oc2ccccc21)c1ccc(O)cc1 (stereo not given),–,inactive: -1.2% [at 46.1 µM]
CC(=O)Nc1ccc(NC(=O)CSc2ccc(-c3cccs3)nn2)cc1,"inconclusive: 4.47 µM [activator, full curve, poor fit]",–
CCOc1ccccc1N1CC(O)=C(c2nc3ccccc3s2)C1=N,active: 5.8 µM,–

# Continued:

Structure (SMILES),Potency,"activity change, negative = inhibition"
CC(=O)NCCC(=O)Nc1cc(S(=O)(=O)N2CCCCC2)ccc1Oc1ccccc1,–,inactive: 11.2%
CCCc1ccc(S(=O)(=O)N2CCN(C(C)C(=O)NCc3ccccc3)CC2)cc1 (stereo not given),"inconclusive: 12.6 µM [inhibitor, partial curve, poor fit]",–
Cc1c(Cl)cccc1NC(=S)NCCc1ccccn1,–,inactive: 2.15% [at 14.2 µM]
O=C(c1cc(-c2ccc(Br)cc2)on1)N1CCOCC1,"inconclusive: 35.5 µM [inhibitor, single point]",–
COc1ccccc1OCC(=O)OCC(=O)NCCN1C(=O)CSC1=O,"inconclusive: 0.073 µM [inhibitor, full curve, poor fit]",–
O=C(CNC1CCCC1)Nc1ccc(N2CCCCCC2)cc1,"inconclusive: 11.2 µM [inhibitor, partial curve, poor fit]",–
O=Nc1c(O)n(Cc2ccc(Cl)cc2)c2ccccc12,"inconclusive: 23.1 µM [inhibitor, single point]",–
O=C(Cc1ccccc1)Nc1nnc(-c2cccs2)s1,–,inactive: -28.7%
Cc1cc(OCc2cc(C(=O)N3CCC(Oc4cccnc4)CC3)no2)cc(C)c1Cl,"inconclusive: 35.5 µM [inhibitor, single point]",–
CCCCc1nc2ccccc2c(NC(=O)CN(CC)CC)c1CCC,"inconclusive: 12.6 µM [inhibitor, partial curve]",–
O=C(CSC1c2ccccc2-c2ccccc21)N/N=C/c1ccccc1O,active: 8.2 µM,–
COc1cccc(N2CCN(C(=O)c3ccc4nc(N5CCCCC5)sc4c3)CC2)c1,–,inactive: -6.1%
O=C(NC1CCCCCCC1)c1ccc(Br)o1,–,inactive: 1.65% [at 46.1 µM]
CN(C)C(=O)C(=O)c1c(-c2ccccc2)cc2ccccn12,–,inactive: 19.3%
Cc1ccc(S(=O)(=O)NCCC(=O)NNC(=O)c2ccccc2O)cc1C,–,inactive: -0.0613%
CCn1cc(C(=O)N2CCc3ccccc32)c(=O)c2cc(S(=O)(=O)N3CCCC3)ccc21,"inconclusive: 0.282 µM [inhibitor, partial curve, poor fit]",–
O=C(Cc1cccs1)Nc1cccc(-c2ccc3nncn3n2)c1,"inconclusive: 1 µM [inhibitor, full curve, poor fit]",–
CCOc1ccc(N(C(C)C(=O)NCCSc2ccc(C)cc2)S(C)(=O)=O)cc1 (stereo not given),"inconclusive: 35.5 µM [inhibitor, single point]",–
CC(C)(C)n1nnnc1C(c1cccnc1)N1CCN(c2cccc(C(F)(F)F)c2)CC1 (stereo not given),"inconclusive: 35.5 µM [inhibitor, single point]",–
Cc1cccnc1NC(=O)c1sc2ccccc2c1Cl,"inconclusive: 1 µM [activator, full curve, poor fit]",–
CCOc1ncccc1C(=O)NNC(=O)c1cccc(S(=O)(=O)Nc2ccccc2OC)c1,"inconclusive: 0.112 µM [activator, full curve, poor fit]",–
CCc1cc2c(cc3c(=O)n(CC(=O)NC4CCCCC4)ncn32)s1,–,inactive: 3.95% [at 46.1 µM]
O=C(/C=C/c1ccc(Br)cc1)c1ccc(NC2=NCCCS2)cc1,"inconclusive: 20.6 µM [inhibitor, single point]",–
Fc1ccccc1C1c2[nH]c3ccccc3c2CCN1Cc1ccoc1 (stereo not given),"inconclusive: 7.08 µM [inhibitor, full curve, poor fit]",–

Structure (SMILES),Potency,"activity change, negative = inhibition"
Cc1cccc(C)c1OCc1nc2ccccc2[nH]1,"inconclusive: 3.16 µM [activator, single point]",–
COc1ccc(C2C(C(=O)OCC(=O)Nc3ccc(C)cc3)CCC(=O)N2c2ccc(OC)cc2)cc1 (stereo not given),"inconclusive: 17.8 µM [activator, single point]",–
Cc1ccc(NC(=O)CCN2C(=O)c3ccccc3C2=O)cc1,"inconclusive: 11.2 µM [activator, partial curve]",–
Cc1ccc(NC(=O)COc2ccc(C(=O)c3ccccc3)cc2)c(O)c1,"inconclusive: 10 µM [inhibitor, partial curve, poor fit]",–
O=C1c2ccccc2-c2onc3ccc(NCc4ccco4)c1c23,"inconclusive: 35.5 µM [inhibitor, single point]",–
O=C(Oc1ccccc1Cl)c1ccccc1,–,inactive: 2.72%
CN(CC(=O)O)S(=O)(=O)/C=C/c1ccccc1,–,inactive: 4.77% [at 46.1 µM]
CCN1CCN(Cc2ccc(OCc3ccccc3)cc2)CC1,"inconclusive: 16.4 µM [inhibitor, single point]",–
COc1ccccc1-c1noc(-c2ccc(NCc3cccnc3)c([N+](=O)[O-])c2)n1,–,inactive: 9.91% [at 46.1 µM]
C=CCC1(NC(C)c2ccccc2)CCCCC1 (stereo not given),"inconclusive: 0.517 µM [inhibitor, partial curve, poor fit]",–
Nc1nc2ccccc2n1CCN1CCCC1,"inconclusive: 6.51 µM [inhibitor, partial curve, poor fit]",–
O=C(CN1C(=O)CC(c2ccco2)Sc2ccccc21)Nc1ccc(Br)cc1 (stereo not given),–,inactive: 7.49% [at 46.1 µM]
CCCCN1CCC(n2c(=O)[nH]c3ccccc32)CC1,"inconclusive: 0.158 µM [inhibitor, full curve, poor fit]",–
CCN1CCN(C(c2ccccn2)c2c(NC(=O)c3ccccc3)sc(C)c2C)CC1 (stereo not given),active: 10 µM,–
Cn1cc(C(=O)NCCc2ccccc2)c(=O)c2cc(S(=O)(=O)N3CCCCCC3)ccc21,–,inactive: 8.42% [at 46.1 µM]
Cc1c(C(=O)N(Cc2ccc(N(C)C)cc2)Cc2ccco2)oc2cc(Br)ccc12,–,inactive: 11.8% [at 46.1 µM]
COc1ccc(CNC(=O)CCc2c(C)nc3nc(CNC(=O)OC(C)(C)C)nn3c2C)cc1,–,inactive: 1.9% [at 46.1 µM]
O=C(COc1cccc2ccccc12)N/N=C/C=C/c1ccccc1,–,inactive: -6.3%
Cc1cc(C)cc(NS(=O)(=O)c2ccc(NC(=S)NC(=O)c3cccs3)cc2)c1,active: 11.6 µM,–
CC(=O)c1cccc(Nc2nn(-c3ccc(OC(F)(F)F)cc3)nc2C(C)=O)c1,"inconclusive: 5.62 µM [activator, single point]",–
c1csc(C(c2nnnn2C2CCCC2)N2CCCC3(CCCCC3)C2)c1 (stereo not given),"inconclusive: 14.1 µM [inhibitor, single point]",–
CCOc1ccc(NCc2nnc(SCc3ccc(Cl)cc3)n2-c2ccccc2)cc1,"inconclusive: 13 µM [inhibitor, partial curve, poor fit]",–

# Quoted at random: two compounds from above, in no set order.
Structure (SMILES),Potency,"activity change, negative = inhibition"
CCN1CCN(C(c2ccccn2)c2c(NC(=O)c3ccccc3)sc(C)c2C)CC1 (stereo not given),active: 10 µM,–
Cc1cc(C)cc(NS(=O)(=O)c2ccc(NC(=S)NC(=O)c3cccs3)cc2)c1,active: 11.6 µM,–
